# Primary screen of a compound library

The chains behind the UniProt entries cited, without tags or fusion partners. Residues count along the entry.
UniProt P9WNZ1, whole entry: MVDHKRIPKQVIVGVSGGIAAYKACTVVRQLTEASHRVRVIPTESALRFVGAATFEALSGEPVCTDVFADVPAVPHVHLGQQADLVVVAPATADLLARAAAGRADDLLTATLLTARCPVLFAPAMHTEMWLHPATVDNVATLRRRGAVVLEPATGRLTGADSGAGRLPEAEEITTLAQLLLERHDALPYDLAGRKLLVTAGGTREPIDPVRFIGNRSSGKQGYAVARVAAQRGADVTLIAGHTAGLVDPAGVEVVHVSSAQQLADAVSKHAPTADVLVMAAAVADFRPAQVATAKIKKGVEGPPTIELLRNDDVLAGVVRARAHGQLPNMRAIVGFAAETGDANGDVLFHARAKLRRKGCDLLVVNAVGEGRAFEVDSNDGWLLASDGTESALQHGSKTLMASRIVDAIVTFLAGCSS
UniProt Q4DA54, 1-478: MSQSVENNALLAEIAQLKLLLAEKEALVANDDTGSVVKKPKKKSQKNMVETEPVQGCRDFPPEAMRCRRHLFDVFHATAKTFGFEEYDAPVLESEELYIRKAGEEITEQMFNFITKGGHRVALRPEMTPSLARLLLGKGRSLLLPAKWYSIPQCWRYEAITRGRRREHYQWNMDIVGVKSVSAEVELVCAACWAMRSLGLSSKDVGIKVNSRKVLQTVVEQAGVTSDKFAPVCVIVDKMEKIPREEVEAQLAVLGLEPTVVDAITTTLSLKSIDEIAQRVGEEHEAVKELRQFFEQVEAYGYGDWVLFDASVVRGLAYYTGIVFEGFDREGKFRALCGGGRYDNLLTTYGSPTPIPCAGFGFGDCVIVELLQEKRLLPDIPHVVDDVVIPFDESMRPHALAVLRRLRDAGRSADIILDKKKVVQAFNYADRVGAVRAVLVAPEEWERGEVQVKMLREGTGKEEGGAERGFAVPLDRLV

The values are deposited in ChEMBL (CHEMBL3988442, “University of Dundee, Small-Polar-MMV Screening Library” (2021)).

A: 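Coenzyme A biosynthesis protein CoaBC, Mycobacterium tuberculosis (UniProt P9WNZ1). Enzyme assay of CoaBC with a phosphate dye (Biomol Green) read at 650 nm. Concentration: 30 µM. Direction is inferred from only a few compounds that gave an IC50; most scored high, so higher reads as stronger inhibition. Most strong results did not repeat in a second test. About 67,000 compounds were tested under these conditions; 0.06% (about 40) showed 50% or more at least once.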
B: 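Enzyme assay of histidyl-tRNA synthetase; the read-out is not stated. Target: Histidine-tRNA ligase, Trypanosoma cruzi CL Brener (UniProt Q4DA54). Tested at 30 µM. The record gives no direction; compounds that gave an IC50 in retests scored well above the rest, so higher reads as stronger inhibition. About 69,000 compounds were tested under these conditions; 0.045% (about 31) showed 50% or more at least once.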

The filed quantity is “Percent Effect” (%). How 0% and 100% were set is not recorded. Most values in the screen are low, and negative values occur. This is an unselected part of the compounds tested. A dash means the value is not listed here; it may have been measured.

compound | A | B
Cc1ncc(C(=O)Nc2cncnc2N(C)C)c(Cl)c1Cl | -4.365 | 1.724
O=C(Nc1nnn[nH]1)c1ccc(-n2cccc2)c(F)c1 | 1.222 | 7.937
CCN(CCSc1ccccc1)C(=O)c1cn([C@H]2CC[C@@H](N)CC2)nn1 | 3.659 | 3.896
COc1ccccc1CC(=O)N1CCCC1Cn1nc(C)cc1C (stereo unspecified) | -1.048 | 1.453
CN(Cc1ccncc1)C(=O)NCc1cn(-c2ccccc2)nn1 | 2.233 | 5.202
CCCn1ncc2c(C(=O)Nc3n[nH]c(SC)n3)cc(C3CC3)nc21 | 12.17 | 1.075
Nc1cc(CCC2CN(Cc3ccc4cc[nH]c4c3)CCO2)ccn1 (stereo unspecified) | 2.913 | 10.99
CN(Cc1ccco1)C(=O)Nc1cc(C(F)(F)F)c[nH]c1=O | 1.173 | 6.936
Fc1ccc2[nH]c(C3CCCN3CCc3ccccn3)nc2c1 (stereo unspecified) | 9.247 | 4.959
Cc1cc(N[C@H]2CCCN(Cc3ccccc3)C2)n2nc(C)cc2n1 | 11 | 10.93
CCc1nccn1C1CCCN(C(=O)c2ccc3c(c2)OCO3)C1 (stereo unspecified) | -1.687 | -1.527
Fc1ccc2c(c1)nc1n2[C@@H](CNCc2nccs2)COC1 | 4.194 | 2.488
CN(C(=O)c1ccncc1Cl)c1ccccc1S(C)(=O)=O | -8.264 | 7.065
c1cc(CN2CC[C@@H]3[C@@H](CO[C@H]3CN3CCOCC3)C2)cs1 | 2.222 | 4.673
O=C(Cc1cccs1)N1CCC(O)(CN2CCc3ccccc3C2)C1 (stereo unspecified) | 2.184 | 9.89
O=C(C1CCOCC1)N1CCOC(CC2CCCCC2)C1 (stereo unspecified) | -1.988 | 6.667
CN(Cc1cc2n(n1)CCCNC2)Cc1cc(-c2ccncc2)no1 | - | 3.185
CC(=O)N1CCCN(C(=O)NCc2cccnc2OC(C)C)CC1 | 4.082 | 5.848
OC(CN1CCOCC1)c1cc(Cl)ccc1Cl (stereo unspecified) | 4.577 | -2.762
COc1cccc(CC(=O)NC2CCCc3cn[nH]c32)c1 (stereo unspecified) | 4.051 | 8.537
Cc1nccn1CCCn1c(=O)cnc2ccccc21 | 2.299 | 0
O=C(c1ccc2c(c1)CCO2)N1CCN(c2cnccn2)CC1 | 4.847 | 4.678
c1ccc(CN2CCCC2)c(CNc2cncc3nnnn23)c1 | -0.1122 | 5.699
COc1nn(C)c2c1CCCN(C(=O)c1ccccc1)C2 | -4.348 | 3.743
CS(=O)(=O)c1ccc(NC(=O)CSc2ccc3c(c2)CCC3)cn1 | 15.08 | -1.724
Cc1cc(NC(=O)CN2CCCC2c2c(C)nn(C)c2C)on1 (stereo unspecified) | 3.571 | 6.433
Cc1ccc(C(C)(O)CNC(=O)c2sccc2OC(F)F)o1 (stereo unspecified) | - | 7.792
O=C(c1cnns1)N1CCN(c2ccc(F)cc2Cl)CC1 | -4.831 | 7.097
CC(C)CNC(=O)c1nc2c(s1)CCN(C(=O)c1ccc(Cl)cc1)CC2 | 10.42 | 6.863
O=C(COc1ccccc1O)N1CCOC(C(F)(F)F)C1 (stereo unspecified) | 0.4914 | 8.235
OCCOc1cc(F)ccc1NCc1cccc(F)c1F | 19.9 | 2.762
O=C1CCCC2=C1C(c1cc(Cl)ccc1F)Nc1nonc1N2 (stereo unspecified) | -3.222 | 1.042
Cc1noc(C)c1CN1C(=O)[C@H]2CC[C@@H]1CN(Cc1ncc[nH]1)C2 | -4.931 | 1.058
Cc1csc(CN2C[C@@H]3CN(CC4CCOCC4)CCO[C@@H]3C2)n1 | 4.187 | 8.247
CCN(C)C[C@@H]1CN(C(=O)c2cc(-c3ccc(F)cc3)n[nH]2)C[C@@H]1CO | 2.913 | 8.04
Cn1cnc2c1CCN(Cc1ccc(C(=O)N3CCCC3)cc1)C2 | 4.663 | 1.527
CCS(=O)(=O)N1CCC2(CC1)CC[C@@]1(C(=O)N(C)C)CN(C)C[C@@H]21 | 10.83 | -0.5348
CCCc1nccn1-c1ccc(C(O)CN2CCOCC2)cc1 (stereo unspecified) | - | 5.263
O=S(=O)(Nc1cnc(N2CCOCC2)nc1)c1ccc(Cl)cc1 | 4.391 | 6.341
c1ccc([C@@H]2CN(Cc3ccncc3)C[C@H]2c2cc[nH]n2)cc1 | 2.511 | 2.571
CN1C[C@@H](COCC2CC2)[C@H]2CCN(Cc3ccco3)CC[C@H]2C1=O | - | 3.797
COCCN(C)C[C@@H]1CN(C(=O)C(C)(C)c2ccccc2)C[C@@H]1CO | -1.324 | 1.508
CN(C)CCN1CCN(C)c2nc(-c3ccccc3)ncc2C1=O | 2.048 | 3.39
Cc1ccccc1CN1CCN(c2ncnc3c2NC(=O)CN3)CC1 | 4.082 | 7.589
CCc1nn(C)c(Cl)c1CN(CC)Cc1cnn(CC)c1 | 5.66 | 8.929
O=S(=O)(Nc1ccon1)c1cc(Cl)cc2c1OCC2 | 7.495 | 2.618
Cc1nc(CNC(=O)Nc2ccc(N(C)C)nc2)sc1C | 1.195 | 1.053
COC(=O)[C@H]1CN(C(=O)NC(C)C)CCN1C(=O)CSC | -3.386 | 4.95
Cc1c(C(=O)N(C)CC(F)(F)F)nnn1-c1ccc(F)cc1 | -5.276 | 4.651
Cc1nc2cc(O)nn2c(C)c1CCC(=O)NCCc1nccn1C | 7.613 | 5.747
CN(C)CCn1ccnc1C1CCCN(c2ncc(Cl)cc2F)C1 (stereo unspecified) | -1.794 | 4.721
Cc1cc(N2CCCC(O)CC2)n2nc(C)c(C)c2n1 (stereo unspecified) | 1.333 | 3.061
O=C(Nc1cc(N2CCOCC2)ncn1)c1cnccn1 | -0.2114 | 4.124
CNc1ccc(CC2CCCN(C(=O)c3cnc(C)nc3)C2)nn1 (stereo unspecified) | -0.6545 | 1.075
CC(C)N(C)S(=O)(=O)c1ccc2c(c1)CCN(C(=O)c1cccnn1)C2 | 11.67 | 11.44
O=C(CCC(=O)N1CCC(Cc2ccc(CO)cc2)C1)c1ccccc1 (stereo unspecified) | -1.381 | 5.291

For reference, 6 entries once more:

| compound | A | B |
|---|---|---|
| `COc1nn(C)c2c1CCCN(C(=O)c1ccccc1)C2` | -4.348 | 3.743 |
| `COc1ccccc1CC(=O)N1CCCC1Cn1nc(C)cc1C` (stereo unspecified) | -1.048 | 1.453 |
| `O=C(COc1ccccc1O)N1CCOC(C(F)(F)F)C1` (stereo unspecified) | 0.4914 | 8.235 |
| `Cc1nccn1CCCn1c(=O)cnc2ccccc21` | 2.299 | 0 |
| `c1ccc([C@@H]2CN(Cc3ccncc3)C[C@H]2c2cc[nH]n2)cc1` | 2.511 | 2.571 |
| `CN(Cc1cc2n(n1)CCCNC2)Cc1cc(-c2ccncc2)no1` | - | 3.185 |